Data from PubChem BioAssay AID504467 (National Center for Advancing Translational Sciences (NCATS), 2011).
Hit rate of the full screen: of about 330,000 compounds, about 7,700 (2.3%) were called active. This list was built around the results that the source calls inconclusive (neither active nor inactive); the mix of calls is not that of the screen. Calls follow the shape of the dose curve; as a rule, active = well fitted inhibition curve with a large enough effect; inconclusive = small, poorly fitted or top-dose-only effect, or effect the other way; inactive = flat fitted curve, though single readings scatter. Potencies beside an inconclusive call are fits to weak or partial responses and may not hold up.

Test: qHTS screen for small molecules that inhibit ELG1-dependent DNA repair in human embryonic kidney (HEK293T) cells expressing luciferase-tagged ELG1; also: nearly all actives have a fitted effect of over 55% in size
Conditions: HEK293T ELG1-luciferase reporter, luminescence, 16 h, DNA damage induced by 5-fluorouridine; activity change, negative = inhibition: at 46.1 µM (top of the series)
Procedure, shortened: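 Step one: seed 2,000 cells per well. Step two: pin-transfer compound or DMSO alongside 5-fluorouridine. Step three: incubate 16 hr, 37 °C, 5% CO2. Step four: add ONE-Glo, wait 30 min, read luminescence.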
% is scaled to controls: 0 for no effect and ±100 for the full control effect; potency is read from the fitted curve at half-maximal effect.

Structure (SMILES)	activity change, negative = inhibition	Potency
O=C(O)c1c(Cl)nc2ccccn12	inactive: -8.66%	
Cc1ccc(OCCCNC2CCCC2)cc1	inactive: -0.193%	
NS(=O)(=O)c1ccc(Nc2nc(-c3cccnc3)cs2)cc1		inconclusive: 14.6 µM [inhibitor, partial curve]
CNc1oc(C)nc1S(=O)(=O)c1ccc(C)cc1	inactive: 0.706%	
CCOC(=O)N1CCN(S(=O)(=O)c2ccc(C(=O)Nc3nnc(C)o3)cc2)CC1	inactive: 0.509%	
COc1cc2c(cc1OC)CN(C(=O)/C=C/c1ccc(F)cc1)CC2	inactive: -16.1%	
Cc1nc(SCC(=O)NCc2ccco2)c2c3c(sc2n1)CCCC3		inconclusive: 25.9 µM [inhibitor, partial curve, poor fit]
CC(=O)C[C@@H](O)CC(=O)[C@@H]1OC(=O)[C@H](C)C/C=C\Cc2ccccc21	inactive: 16.1%	
Cc1ccsc1/C=C1\SC(=S)N(CC2CCCO2)C1=O (stereo unspecified)		inconclusive: 20.6 µM [activator, partial curve]
CC(=O)Nc1ccc(-c2cn3c(n2)SCC3)cc1		inconclusive: 20.6 µM [activator, partial curve]
O=C1NC(Cc2ccc(O)cc2)c2nc3ccc(Cl)cc3c(=O)n2-c2ccccc21 (stereo unspecified)	inactive: -0.185%	
Cc1cc(-c2ccccc2)nc(Oc2cccc(C(F)(F)F)c2)c1S(C)(=O)=O		inconclusive: 29.1 µM [inhibitor, single point]
COc1ccc(NC(=O)c2c([N+](=O)[O-])c(C(C)(C)C)nn2C)cc1		inconclusive: 25.9 µM [inhibitor, single point]
O=C(/C=C/Nc1ccc(F)cc1)c1ccc(Oc2ncccn2)cc1		inconclusive: 9.2 µM [activator, partial curve, poor fit]
CC1=C(C(=O)OCc2ccccc2)C(c2cccc([N+](=O)[O-])c2)NC(=O)N1C (stereo unspecified)		inconclusive: 25.1 µM [inhibitor, single point]
NC(=O)COc1cc2oc(=O)c3c(c2cc1Cl)CCCC3		inconclusive: 32.6 µM [inhibitor, partial curve, poor fit]
Cc1ccc(-n2[nH]c3c4c(ccc3c2=O)C(=O)c2ccccc2C4=O)cc1	inactive: 17.1%	
COc1ccc(CNC(=O)c2ccccc2SCC(=O)NCc2ccco2)cc1		inconclusive: 22.4 µM [inhibitor, single point]
CC(C)(C)C1=NN(c2ccc([N+](=O)[O-])cc2)C(c2ccccc2)C1 (stereo unspecified)	inactive: -5.79%	
c1ccc(CSc2ccc(-c3cccs3)nn2)cc1		inconclusive: 10.3 µM [activator, partial curve]
CCOc1ccc(C(=O)Nc2ccc(C(F)(F)F)n(C)c2=O)cc1		inconclusive: 14.6 µM [activator, partial curve, poor fit]

Rewritten as a markdown table: entries from further up.

| Structure (SMILES) | activity change, negative = inhibition | Potency |
| --- | --- | --- |
| CNc1oc(C)nc1S(=O)(=O)c1ccc(C)cc1 | inactive: 0.706% |  |
| Cc1nc(SCC(=O)NCc2ccco2)c2c3c(sc2n1)CCCC3 |  | inconclusive: 25.9 µM [inhibitor, partial curve, poor fit] |
| Cc1cc(-c2ccccc2)nc(Oc2cccc(C(F)(F)F)c2)c1S(C)(=O)=O |  | inconclusive: 29.1 µM [inhibitor, single point] |
| NC(=O)COc1cc2oc(=O)c3c(c2cc1Cl)CCCC3 |  | inconclusive: 32.6 µM [inhibitor, partial curve, poor fit] |
| Cc1ccc(-n2[nH]c3c4c(ccc3c2=O)C(=O)c2ccccc2C4=O)cc1 | inactive: 17.1% |  |
